These are yes or no findings as the source states them, for the method shown. Binding seen in cells or lysates may run through a third protein. Binding calls can cover weak binding; strength is not graded here.
Biological target: ∆14 FUS, endogenous protein of the ∆14 Fus knockin mouse (mouse (endogenous in knockin embryonic brain)) (UniProt P56959)
Test: co-IP; E12.5-14.5 mouse brains homogenised in 20 mM HEPES pH 7.4, 150 mM NaCl, 10% glycerol; 1 mg lysate, 2 μg antibody or IgG control overnight, Protein A Sepharose; which protein was precipitated is not told

Amino acid sequences for entries named in this document (tags omitted). A change or cut given only in a name is not applied to a line headed by its entry.
UniProt P56959: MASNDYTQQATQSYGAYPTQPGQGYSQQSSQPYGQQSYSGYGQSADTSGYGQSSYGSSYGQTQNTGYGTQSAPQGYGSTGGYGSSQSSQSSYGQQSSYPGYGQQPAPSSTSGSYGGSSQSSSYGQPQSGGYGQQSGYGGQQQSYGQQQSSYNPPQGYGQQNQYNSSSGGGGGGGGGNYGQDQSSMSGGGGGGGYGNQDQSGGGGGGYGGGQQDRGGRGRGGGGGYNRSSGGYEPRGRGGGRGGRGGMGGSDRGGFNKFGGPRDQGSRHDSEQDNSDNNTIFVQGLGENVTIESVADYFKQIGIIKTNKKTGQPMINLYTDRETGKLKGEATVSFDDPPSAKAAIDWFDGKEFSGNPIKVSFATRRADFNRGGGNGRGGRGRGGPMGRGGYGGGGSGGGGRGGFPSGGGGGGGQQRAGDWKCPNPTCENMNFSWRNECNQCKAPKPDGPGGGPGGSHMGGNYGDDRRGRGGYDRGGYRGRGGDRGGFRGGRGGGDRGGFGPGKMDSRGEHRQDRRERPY
UniProt P97801: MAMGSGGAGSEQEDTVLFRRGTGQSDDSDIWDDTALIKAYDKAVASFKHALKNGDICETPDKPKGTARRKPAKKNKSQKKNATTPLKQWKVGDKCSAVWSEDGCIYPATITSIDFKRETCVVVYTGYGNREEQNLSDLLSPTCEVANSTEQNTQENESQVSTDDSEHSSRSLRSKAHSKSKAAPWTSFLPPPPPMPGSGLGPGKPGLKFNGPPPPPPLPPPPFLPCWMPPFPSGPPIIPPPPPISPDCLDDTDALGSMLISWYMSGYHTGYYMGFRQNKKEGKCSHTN

Substance: Survival Motor Neuron (SMN), mouse, endogenous (from UniProt P97801 1-288)
- binding: binds

From paper PMC8294762
